Consider two molecules from patent publication CN117083298A.

Protein sequences, listed by entry. Tags and fused reporters are not part of them. Lines headed by an entry give the natural chain unless they say otherwise; changes in a name come on top.
UniProt P10636: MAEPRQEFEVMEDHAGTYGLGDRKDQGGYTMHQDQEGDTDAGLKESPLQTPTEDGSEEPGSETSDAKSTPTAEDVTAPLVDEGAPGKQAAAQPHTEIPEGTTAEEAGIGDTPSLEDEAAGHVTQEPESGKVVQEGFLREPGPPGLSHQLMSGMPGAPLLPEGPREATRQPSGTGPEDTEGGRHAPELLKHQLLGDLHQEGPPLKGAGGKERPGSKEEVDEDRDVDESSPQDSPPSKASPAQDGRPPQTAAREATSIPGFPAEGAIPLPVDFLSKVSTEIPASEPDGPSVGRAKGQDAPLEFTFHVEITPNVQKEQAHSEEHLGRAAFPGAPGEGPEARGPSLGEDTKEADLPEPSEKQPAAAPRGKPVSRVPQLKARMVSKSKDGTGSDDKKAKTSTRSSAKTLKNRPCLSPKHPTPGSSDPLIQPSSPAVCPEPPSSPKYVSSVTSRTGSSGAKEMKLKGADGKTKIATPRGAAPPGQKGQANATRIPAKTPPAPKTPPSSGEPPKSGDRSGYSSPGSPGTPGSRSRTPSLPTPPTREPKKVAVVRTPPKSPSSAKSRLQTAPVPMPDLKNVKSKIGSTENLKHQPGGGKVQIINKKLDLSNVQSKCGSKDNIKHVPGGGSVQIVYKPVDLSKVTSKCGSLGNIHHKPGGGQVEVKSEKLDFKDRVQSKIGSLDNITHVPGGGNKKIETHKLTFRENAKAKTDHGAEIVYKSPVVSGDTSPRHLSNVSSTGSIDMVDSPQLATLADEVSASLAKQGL

Changes are numbered by the printed parent chain. No constants are given. Whether binding was seen depends on the method and setting. Some binding calls cover weakened binding; strength is not graded here.

For this assay, the target named is 人全长重组tau(2N4R) (human) (UniProt P10636). Description: SPR, Biacore T200, 25 °C, mAb captured by anti-Fc on a CM4 chip, tau as analyte, 1:1 Langmuir fit.

B1: PT1B635 (antibody, human IgG1, kappa, V domains shown)
VH: QVQLVQSGAEVKKPGASVKVSCKASGYTFTSYWITWVRQAPGQGLEWMGDIHPGRGSTKYAQKLQGRVTLTTDTSTSTAYMELRSLRSDDTAVYYCARRWGFDYWGQGTLVTVSS
VL: DIVITQTPLSLPVTPGEPASISCRSSKSLLYKDGKTYLNWFLQKPGQSPQLLIYLMSTRASGVPDRFSGSGSGTDFTLKISRVEAEDVGVYYCQQLVDYPLTFGQGTKLEIKR
As to B1, the binding entry is given as “binds”.

B2: PT1B901 (antibody, human IgG1, kappa, V domains shown)
VH: B1 VH
VL: B1 VL with G34L
With B2, the binding entry was “binds”.
